Assay results taken from article PMC12058146.
Results are given in words; binding and its absence hold for the method and conditions named. Binding seen in cells or lysates may run through a third protein. Some entries that bind do so weakly or less than the wild type. For some assays here: Tags and fused reporters may be left off the sequences shown.

The chains behind the UniProt entries cited, without tags or fusion partners. Where a name states a change or a piece, a line headed by the entry shows the natural chain unless it says otherwise. A line that says so, or that is headed by a name, gives the form on record, which may keep a tag or linker.
UniProt A1ZAW0: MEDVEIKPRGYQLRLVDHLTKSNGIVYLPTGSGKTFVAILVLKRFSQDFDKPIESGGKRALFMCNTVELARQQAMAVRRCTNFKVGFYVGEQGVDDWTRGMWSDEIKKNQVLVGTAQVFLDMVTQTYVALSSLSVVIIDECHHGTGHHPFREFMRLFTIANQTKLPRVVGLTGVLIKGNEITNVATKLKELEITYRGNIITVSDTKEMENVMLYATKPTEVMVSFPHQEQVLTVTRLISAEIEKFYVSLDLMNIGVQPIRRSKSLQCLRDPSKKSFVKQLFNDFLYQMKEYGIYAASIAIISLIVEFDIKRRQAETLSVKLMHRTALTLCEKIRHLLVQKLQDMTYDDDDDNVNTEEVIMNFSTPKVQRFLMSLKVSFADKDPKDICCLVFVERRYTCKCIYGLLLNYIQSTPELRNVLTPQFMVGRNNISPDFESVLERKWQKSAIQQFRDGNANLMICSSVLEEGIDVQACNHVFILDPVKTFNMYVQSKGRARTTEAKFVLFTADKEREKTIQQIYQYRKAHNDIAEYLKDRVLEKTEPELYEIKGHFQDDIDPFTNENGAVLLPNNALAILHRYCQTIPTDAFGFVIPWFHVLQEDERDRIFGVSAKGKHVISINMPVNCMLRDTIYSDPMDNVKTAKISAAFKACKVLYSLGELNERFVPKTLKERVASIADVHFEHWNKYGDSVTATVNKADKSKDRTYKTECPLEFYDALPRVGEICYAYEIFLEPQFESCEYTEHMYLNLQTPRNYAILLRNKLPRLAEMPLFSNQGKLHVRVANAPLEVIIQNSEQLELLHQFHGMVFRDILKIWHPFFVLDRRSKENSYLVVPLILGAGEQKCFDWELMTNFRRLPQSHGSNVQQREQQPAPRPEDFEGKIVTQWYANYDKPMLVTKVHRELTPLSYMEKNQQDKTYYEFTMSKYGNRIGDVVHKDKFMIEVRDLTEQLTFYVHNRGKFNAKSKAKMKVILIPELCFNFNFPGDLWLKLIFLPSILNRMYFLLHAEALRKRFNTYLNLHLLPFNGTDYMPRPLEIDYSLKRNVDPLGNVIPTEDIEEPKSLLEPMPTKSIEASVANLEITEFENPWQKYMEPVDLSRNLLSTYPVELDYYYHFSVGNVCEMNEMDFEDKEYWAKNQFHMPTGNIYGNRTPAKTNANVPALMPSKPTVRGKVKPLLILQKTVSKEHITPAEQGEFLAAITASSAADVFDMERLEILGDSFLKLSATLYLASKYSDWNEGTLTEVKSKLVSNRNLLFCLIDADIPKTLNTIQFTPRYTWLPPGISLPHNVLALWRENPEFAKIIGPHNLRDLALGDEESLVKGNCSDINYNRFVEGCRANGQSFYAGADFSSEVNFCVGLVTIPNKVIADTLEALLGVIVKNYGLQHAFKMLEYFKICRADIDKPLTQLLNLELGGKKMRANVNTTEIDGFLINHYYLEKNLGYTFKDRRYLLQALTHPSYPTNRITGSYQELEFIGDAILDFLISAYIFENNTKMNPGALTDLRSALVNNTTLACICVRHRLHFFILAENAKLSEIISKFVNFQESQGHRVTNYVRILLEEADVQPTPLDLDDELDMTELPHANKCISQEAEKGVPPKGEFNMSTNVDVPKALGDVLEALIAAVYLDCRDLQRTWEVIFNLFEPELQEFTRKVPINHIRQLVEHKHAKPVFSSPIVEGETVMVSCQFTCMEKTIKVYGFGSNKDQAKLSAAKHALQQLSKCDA
GFP::Dicer-2^Hel1 (A1ZAW0, form named): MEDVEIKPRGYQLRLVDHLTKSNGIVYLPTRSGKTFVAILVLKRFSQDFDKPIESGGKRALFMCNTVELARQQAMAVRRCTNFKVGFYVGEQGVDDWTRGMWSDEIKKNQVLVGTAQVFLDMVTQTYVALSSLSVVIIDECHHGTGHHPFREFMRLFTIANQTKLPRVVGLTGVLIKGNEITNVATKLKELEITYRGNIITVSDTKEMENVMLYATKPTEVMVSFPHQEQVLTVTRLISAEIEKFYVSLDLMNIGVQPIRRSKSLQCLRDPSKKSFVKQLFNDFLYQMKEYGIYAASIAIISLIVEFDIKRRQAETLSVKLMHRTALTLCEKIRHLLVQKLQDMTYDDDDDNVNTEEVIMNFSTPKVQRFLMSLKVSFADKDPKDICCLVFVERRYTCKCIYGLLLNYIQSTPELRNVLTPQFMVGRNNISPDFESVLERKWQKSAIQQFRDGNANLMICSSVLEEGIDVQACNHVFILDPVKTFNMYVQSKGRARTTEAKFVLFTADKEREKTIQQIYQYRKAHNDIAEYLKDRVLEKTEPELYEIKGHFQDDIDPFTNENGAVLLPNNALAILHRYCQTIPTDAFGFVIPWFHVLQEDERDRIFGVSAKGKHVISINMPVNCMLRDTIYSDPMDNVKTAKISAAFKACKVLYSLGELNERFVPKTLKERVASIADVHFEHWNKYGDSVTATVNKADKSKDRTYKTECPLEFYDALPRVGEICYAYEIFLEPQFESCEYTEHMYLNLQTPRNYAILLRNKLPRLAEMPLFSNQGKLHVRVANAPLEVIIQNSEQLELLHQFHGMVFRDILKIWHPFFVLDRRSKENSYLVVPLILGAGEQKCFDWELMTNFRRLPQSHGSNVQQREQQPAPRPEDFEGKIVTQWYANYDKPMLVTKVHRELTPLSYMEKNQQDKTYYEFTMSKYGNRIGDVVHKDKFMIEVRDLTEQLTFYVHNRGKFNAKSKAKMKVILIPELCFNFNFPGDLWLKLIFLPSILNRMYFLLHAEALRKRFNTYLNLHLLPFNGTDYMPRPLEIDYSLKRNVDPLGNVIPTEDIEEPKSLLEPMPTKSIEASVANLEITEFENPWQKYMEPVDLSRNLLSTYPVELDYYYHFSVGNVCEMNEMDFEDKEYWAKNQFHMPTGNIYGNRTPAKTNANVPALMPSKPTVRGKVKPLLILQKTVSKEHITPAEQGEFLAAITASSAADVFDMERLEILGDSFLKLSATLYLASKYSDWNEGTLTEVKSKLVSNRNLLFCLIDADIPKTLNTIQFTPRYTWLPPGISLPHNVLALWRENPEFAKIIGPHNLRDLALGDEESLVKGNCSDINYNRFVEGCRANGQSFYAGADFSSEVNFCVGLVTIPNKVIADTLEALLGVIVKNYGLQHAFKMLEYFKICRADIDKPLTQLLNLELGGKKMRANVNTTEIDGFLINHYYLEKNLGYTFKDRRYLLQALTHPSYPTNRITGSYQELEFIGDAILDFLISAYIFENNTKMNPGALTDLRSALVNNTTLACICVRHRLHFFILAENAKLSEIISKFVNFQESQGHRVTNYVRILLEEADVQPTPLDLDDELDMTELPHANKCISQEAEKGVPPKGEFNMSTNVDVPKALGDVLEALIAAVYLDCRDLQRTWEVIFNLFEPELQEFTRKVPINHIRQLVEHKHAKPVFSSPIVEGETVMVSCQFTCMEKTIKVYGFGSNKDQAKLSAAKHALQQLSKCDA
UniProt O61380: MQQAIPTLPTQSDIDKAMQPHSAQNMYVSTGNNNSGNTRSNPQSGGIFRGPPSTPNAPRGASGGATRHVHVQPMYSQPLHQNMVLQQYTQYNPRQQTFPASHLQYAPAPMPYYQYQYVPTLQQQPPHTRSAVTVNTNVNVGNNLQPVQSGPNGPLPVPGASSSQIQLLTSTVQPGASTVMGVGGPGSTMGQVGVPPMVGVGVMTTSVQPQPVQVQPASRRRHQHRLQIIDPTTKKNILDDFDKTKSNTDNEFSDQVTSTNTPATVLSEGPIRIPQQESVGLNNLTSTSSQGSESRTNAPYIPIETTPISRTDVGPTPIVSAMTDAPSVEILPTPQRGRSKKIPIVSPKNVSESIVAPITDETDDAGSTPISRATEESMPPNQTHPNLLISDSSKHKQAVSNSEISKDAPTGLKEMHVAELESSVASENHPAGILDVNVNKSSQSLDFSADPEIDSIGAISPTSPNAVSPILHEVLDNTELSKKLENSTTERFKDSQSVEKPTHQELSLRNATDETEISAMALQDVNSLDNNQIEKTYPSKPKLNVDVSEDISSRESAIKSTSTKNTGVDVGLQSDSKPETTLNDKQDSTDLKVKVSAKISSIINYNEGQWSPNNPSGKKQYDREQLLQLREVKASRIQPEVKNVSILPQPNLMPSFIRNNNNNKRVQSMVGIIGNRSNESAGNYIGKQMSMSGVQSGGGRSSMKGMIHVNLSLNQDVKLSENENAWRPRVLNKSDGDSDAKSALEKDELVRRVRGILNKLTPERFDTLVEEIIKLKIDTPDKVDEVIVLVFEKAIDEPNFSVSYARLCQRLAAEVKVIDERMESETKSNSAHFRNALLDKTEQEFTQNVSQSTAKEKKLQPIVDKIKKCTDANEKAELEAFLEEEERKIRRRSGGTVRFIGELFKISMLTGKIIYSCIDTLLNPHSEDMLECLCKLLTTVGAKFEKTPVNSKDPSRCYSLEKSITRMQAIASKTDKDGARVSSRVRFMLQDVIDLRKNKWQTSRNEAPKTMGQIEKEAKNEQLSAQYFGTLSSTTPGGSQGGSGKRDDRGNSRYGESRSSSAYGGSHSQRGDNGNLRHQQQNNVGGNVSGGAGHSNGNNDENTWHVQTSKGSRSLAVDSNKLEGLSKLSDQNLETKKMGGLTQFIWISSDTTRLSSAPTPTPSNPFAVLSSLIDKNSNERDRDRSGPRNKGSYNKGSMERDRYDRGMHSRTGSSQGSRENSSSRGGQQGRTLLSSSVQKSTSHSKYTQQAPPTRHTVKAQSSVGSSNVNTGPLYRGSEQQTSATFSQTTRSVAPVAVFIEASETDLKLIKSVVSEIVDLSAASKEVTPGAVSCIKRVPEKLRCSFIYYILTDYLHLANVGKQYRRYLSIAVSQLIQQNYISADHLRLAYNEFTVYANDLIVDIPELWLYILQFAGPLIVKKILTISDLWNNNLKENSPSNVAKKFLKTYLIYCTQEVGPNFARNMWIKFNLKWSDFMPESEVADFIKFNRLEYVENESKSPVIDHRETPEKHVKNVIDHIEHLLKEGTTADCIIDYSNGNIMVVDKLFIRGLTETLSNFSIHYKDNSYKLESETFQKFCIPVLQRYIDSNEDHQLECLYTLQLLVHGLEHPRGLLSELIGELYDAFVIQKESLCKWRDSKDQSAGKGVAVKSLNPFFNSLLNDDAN

T1: GFP-Me31B (Drosophila melanogaster) (UniProt P23128)
T1 sequence: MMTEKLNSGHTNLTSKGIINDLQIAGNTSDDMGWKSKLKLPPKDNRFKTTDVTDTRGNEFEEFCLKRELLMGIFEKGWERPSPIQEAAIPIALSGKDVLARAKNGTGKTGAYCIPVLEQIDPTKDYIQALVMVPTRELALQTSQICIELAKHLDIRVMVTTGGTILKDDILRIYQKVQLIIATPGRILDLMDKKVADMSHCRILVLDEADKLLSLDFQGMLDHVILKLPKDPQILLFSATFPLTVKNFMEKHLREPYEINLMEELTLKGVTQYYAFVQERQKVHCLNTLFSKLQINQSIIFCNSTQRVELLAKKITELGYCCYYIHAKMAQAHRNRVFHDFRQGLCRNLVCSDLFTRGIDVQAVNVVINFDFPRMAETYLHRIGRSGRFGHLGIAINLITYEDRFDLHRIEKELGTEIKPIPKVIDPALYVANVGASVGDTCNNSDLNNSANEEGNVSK

B1: Me31B (protein, UniProt P23128 1-459)
chain: T1 sequence
B2: eIF4E1 (protein, UniProt P48598 1-259)
chain: MQSDFHRMKNFANPKSMFKTSAPSTEQGRPEPPTSAAAPAEAKDVKPKEDPQETGEPAGNTATTTAPAGDDAVRTEHLYKHPLMNVWTLWYLENDRSKSWEDMQNEITSFDTVEDFWSLYNHIKPPSEIKLGSDYSLFKKNIRPMWEDAANKQGGRWVITLNKSSKTDLDNLWLDVLLCLIGEAFDHSDQICGAVINIRGKSNKISIWTADGNNEEAALEIGHKLRDALRLGRNNSLQYQLHKDTMVKQGSNVKSIYTL

Tests used:
[1] = target: GFP-Dicer-2 (S2 cells) (Drosophila melanogaster) (UniProt A1ZAW0); assay: co-IP; tagged proteins ectopically expressed in S2 cells; immunoprecipitation of the GFP-tagged protein, western blot
[2] = target: T1, GFP-Me31B (Drosophila melanogaster); assay: as above
[3] = target: GFP::Dicer-2^Hel1 (Drosophila melanogaster) (UniProt A1ZAW0); assay: co-IP; anti-GFP beads (Miltenyi or Chromotek agarose) on lysates of adult flies, non-infected or DCV-infected; western blot with antibodies to the endogenous proteins; against Ctrl-GFP or Ctrl-WT
[4] = target: GFP::Dicer-2^WT (Drosophila melanogaster) (UniProt A1ZAW0); assay: as above
[5] = target: GFP::Dicer-2^WT (Drosophila melanogaster) (UniProt A1ZAW0); assay: co-IP; as a4, lysate treated with RNase A (15 µg, 30 min at 4°C) before the anti-GFP IP

Row | Molecule | binding [1] | binding [2] | binding [3] | binding [4] | binding [5]
1 | HA-eIF4G1 (from UniProt O61380 1-1666) | binds | – | – | – | –
2 | Flag-Dicer-2 (from UniProt A1ZAW0 1-1722) (enzyme) | – | binds | – | – | –
3 | B1 | – | – | binds | binds | binds
4 | B2 | – | – | binds | binds | binds
